This note sets out measurements from article PMC11270970.

Chains of the proteins cited; added tags and fusions are not shown. Chains listed by the source or under a name are the forms on record and can include a tag or linker.
nucleolin (NuP), recombinant human (Homo sapiens), one chain, as listed by the source: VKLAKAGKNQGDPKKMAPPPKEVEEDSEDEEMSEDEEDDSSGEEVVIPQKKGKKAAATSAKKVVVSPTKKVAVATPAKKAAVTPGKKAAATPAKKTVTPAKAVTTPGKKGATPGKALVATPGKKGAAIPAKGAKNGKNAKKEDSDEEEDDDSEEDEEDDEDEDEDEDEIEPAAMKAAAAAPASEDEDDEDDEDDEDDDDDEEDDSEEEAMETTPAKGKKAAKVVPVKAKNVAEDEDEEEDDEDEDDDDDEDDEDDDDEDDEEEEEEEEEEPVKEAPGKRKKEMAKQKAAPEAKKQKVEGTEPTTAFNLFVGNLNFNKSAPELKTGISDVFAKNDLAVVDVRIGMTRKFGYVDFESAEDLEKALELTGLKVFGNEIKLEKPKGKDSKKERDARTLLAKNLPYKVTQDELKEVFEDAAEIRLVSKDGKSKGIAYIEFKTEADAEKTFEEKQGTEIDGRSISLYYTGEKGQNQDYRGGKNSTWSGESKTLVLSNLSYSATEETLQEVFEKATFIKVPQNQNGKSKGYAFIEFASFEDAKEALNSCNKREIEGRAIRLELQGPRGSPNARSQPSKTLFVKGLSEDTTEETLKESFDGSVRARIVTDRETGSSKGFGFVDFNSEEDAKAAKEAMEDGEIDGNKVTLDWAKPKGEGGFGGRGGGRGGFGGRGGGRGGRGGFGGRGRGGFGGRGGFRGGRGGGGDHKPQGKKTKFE

The subject of this data set is nucleolin (NuP), recombinant human (Homo sapiens). Briefly: SPR. Particulars: minimal association; 5' triptolide via acetal ester linker - amino-CH2CH2-(OCH2CH2)3-O-; SPR with recombinant human nucleolin; recombinant protein; single-stranded DNA.

The exact form of at least one protein or probe is not confirmed. Weaker means in comparison with the reference protein, sequence or condition of that experiment.

As to “CCTCCTCCTCCTTCTCCTCCTCC [CO-TP (TP-amino-CRO, 6b)]”, the binding result is listed as “binds more weakly”.
